Publication PMC10715591, “EspB and HtpG interact with the type III-A CRISPR/Cas system of Mycobacterium tuberculosis” (Frontiers in Molecular Biosciences, 2023)
These are yes or no findings as the source states them, for the method shown. Some results given as binding are weak or reduced against the parent protein; the word gives no strength.

Sequences of proteins named here, by UniProt entry; tags and fusion partners are left off.
UniProt P9WJD9: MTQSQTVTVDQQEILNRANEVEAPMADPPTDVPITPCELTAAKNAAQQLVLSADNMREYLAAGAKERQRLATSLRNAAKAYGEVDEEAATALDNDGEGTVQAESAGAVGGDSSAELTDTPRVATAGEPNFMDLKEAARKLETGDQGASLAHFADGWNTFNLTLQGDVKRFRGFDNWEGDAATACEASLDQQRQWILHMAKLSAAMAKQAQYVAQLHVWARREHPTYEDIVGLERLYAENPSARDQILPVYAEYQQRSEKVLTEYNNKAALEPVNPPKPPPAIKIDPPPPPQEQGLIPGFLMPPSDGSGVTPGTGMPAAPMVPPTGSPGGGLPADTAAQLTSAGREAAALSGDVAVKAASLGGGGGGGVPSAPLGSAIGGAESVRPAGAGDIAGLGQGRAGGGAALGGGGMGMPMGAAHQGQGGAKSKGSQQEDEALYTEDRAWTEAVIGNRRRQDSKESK

Target: ESX-1 secretion-associated protein EspB (recombinant) (Mycobacterium tuberculosis H37Rv) (UniProt P9WJD9)
Test: SPR; Biacore 8K, 25 °C; EspB immobilised covalently on a CM5 chip; analytes (Csm proteins, HtpG) at 25-3,200 nM, 30 μL/min for 2 min; fitted to a 1:1 mass transport model; both purified

B1: MtbCsm2 (natural protein)
chain: MSVIQDDYVKQAEVIRGLPKKKNGFELTTTQLRVLLSLTAQLFDEAQQSANPTLPRQLKEKVQYLRVRFVYQSGREDAVKTFVRNAKLLEALEGIGDSRDGLLRFCRYMEALAAYKKYLDPKDK
binding: binds
